# Test results: patent publication US10857167B2, “Use of oligosaccharide compositions to enhance weight gain” (Children's Hospital Medical Center, priority 2015, dated 2020)
# Further values from the same series stand in other lists.
# Tested on: distal small bowel gene expression
# Test: RNA sequencing / transcriptional analysis of small bowel 56 days after ICR (2′-FL signature response)
# Type: in vivo, mouse
# Source text: Luminal small bowel contents were expressed into AllProtect Tissue Reagent (Qiagen Inc, CA). Bacterial DNA was extracted using the AllPrep DNA/RNA Mini Kit (Qiagen Inc, CA), according to kit instructions and prior to sequencing (described below). Small bowel tissue samples for RNA were placed into RNA Later (Life Technologies, NY). RNA extraction was accomplished following Qiagen RNeasy Plus Kit instruction (Qiagen Inc, CA). All nucleic acid samples were then stored at -80 Celsius until sequenced (described below). Transcriptional analysis was carried out on resected and harvested small bowel samples obtained from operated mice taken to 8 weeks. Murine RNA sequencing libraries were prepared from approximately 1.5 μg RNA using the TruSeq RNA Sample Preparation Kit (Illumina, Calif.) and sequenced using the HiSeq 2000 Sequencing System (Illumina, Calif.) with single-end 50 bp reads. Following removal of primers and barcodes, sequences were aligned to the mm10 genome using reference annotations from UCSC (Rosenbloom et al. (2015) Nucleic acids research 43: […]-681) (n=36,186 entities). Aligned reads were quantified and used to compute reads per kilobase per million mapped reads (RPKM); raw counts were then normalized using the DESeq algorithm and each harvested sample was baselined to its own resected sample. A filter was applied to the data, requiring at least three reads in all samples of at least one of the four experimental conditions (n=14,489 entities). The data discussed in this publication have been deposited in NCBI's Gene Expression Omnibus and are accessible through NCBI Gene Expression Omnibus (GEO) Series accession number GSE72590. Edgar et al. (2002) Nucleic acids research 30: 207-210. In order to characterize the impact of 2'-FL supplementation while accounting for the effect of ileoecal resection, a t-test was applied between resected and harvested samples within control and experimental animals. Significance was set at a p-value of ≤0.05 and a fold change of 3, which generated 2,576 differentially regulated entities across two comparisons. Gene set unions and intersections of the control and experimental gene sets were identified through Venn diagrams. From the master list, the gene list specific to animals supplemented with 2'-FL were removed in order to identify genes differentially regulated only by ICR (n=546 entities); this gene set characterizes the adaptive response. Further, the 2'-FL response (n=2,030 entities) was identified by removing the adaptive response signature described above from the master list, leaving only genes regulated by 2'-FL supplementation after ICR which were not found in the non-supplemented adaptive response. Heatmaps were generated using hierarchical clustering with the Pearson's Centered distance metric and the average linkage rule; both entities and samples were clustered. All genomic analyses described above were performed in Strand NGS (Strand Life Sciences, CA). Gene list functional enrichment was initially discovered using ToppFun, a member of the ToppGene Suite. Chen et al. (2009) Nucleic acids research 37: […]-311. No statistical correction was selected. Gene lists were further analyzed using ClueGO, a plugin for Cytoscape designed to decipher functionally grouped gene ontology and pathway annotation networks. Bindea et al. (2009) Bioinformatics 25: 1091-1093. At the time of data analysis, the annotation files were updated from sources to Jan. 1, 2015. “GO Term Fusion” was enabled to manage ontologic term redundancy and network specificity was set to medium. Results were restricted to pathways with p≤0.05 using Benjamini-Hochberg correction and Kappa scoring was set to 0.4. Biocyc annotations were assigned a rectangle, gene ontology biologic processes were assigned an ellipse, and […] annotations were assigned a diamond shape. No meaning was assigned to size or color. […]
smiles,measurement,setting,value
"C[C@@H]1O[C@@H](O[C@H]2[C@H](O[C@H]3[C@H](O)[C@@H](O)C(O)O[C@@H]3CO)O[C@H](CO)[C@H](O)[C@@H]2O)[C@@H](O)[C@H](O)[C@@H]1O (stereo partly shown) [2′-FL, 2′-fucosyllactose]",Fold Change (Pre- to Post-op),gene Prelp,−7.993
same,Fold Change (Pre- to Post-op),gene Prex1,−3.715
same,Fold Change (Pre- to Post-op),gene Prkar1b,−4.024
same,Fold Change (Pre- to Post-op),gene Proser1,−3.407
same,Fold Change (Pre- to Post-op),gene Prox1,−6.28
same,Fold Change (Pre- to Post-op),gene Prpf8,−4.161
same,Fold Change (Pre- to Post-op),gene Prrc2a,−7.106
same,Fold Change (Pre- to Post-op),gene Prrc2b,−6.144
same,Fold Change (Pre- to Post-op),gene Prrg3,−6.516
same,Fold Change (Pre- to Post-op),gene Prrt2,−3.049
same,Fold Change (Pre- to Post-op),gene Psmb6,3.04
same,Fold Change (Pre- to Post-op),gene Ptger1,−3.016
same,Fold Change (Pre- to Post-op),gene Ptpn9,−3.175
same,Fold Change (Pre- to Post-op),gene Ptpn14,−4.975
same,Fold Change (Pre- to Post-op),gene Ptprb,−4.231
same,Fold Change (Pre- to Post-op),gene Ptprm,−3.997
same,Fold Change (Pre- to Post-op),gene Ptprn,−6.834
same,Fold Change (Pre- to Post-op),gene Ptprn2,−4.391
same,Fold Change (Pre- to Post-op),gene Pvrl1,−5.314
same,Fold Change (Pre- to Post-op),gene Pygb,−3.516
same,Fold Change (Pre- to Post-op),gene Pyy,−4.067
same,Fold Change (Pre- to Post-op),gene Qser1,−3.066
same,Fold Change (Pre- to Post-op),gene R3hdm2,−5.084
same,Fold Change (Pre- to Post-op),gene Rab17,3.039
same,Fold Change (Pre- to Post-op),gene Rad54l2,−3.188
same,Fold Change (Pre- to Post-op),gene Radil,−4.409
same,Fold Change (Pre- to Post-op),gene Rai1,−3.4
same,Fold Change (Pre- to Post-op),gene Rapgef1,−3.382
same,Fold Change (Pre- to Post-op),gene Rarg,−3.982
same,Fold Change (Pre- to Post-op),gene Rasgrp3,−3.727
same,Fold Change (Pre- to Post-op),gene Rassf8,−3.671
same,Fold Change (Pre- to Post-op),gene Rcan2,−3.53
same,Fold Change (Pre- to Post-op),gene Rcc2,−4.586
same,Fold Change (Pre- to Post-op),gene Rcor1,−5.596
same,Fold Change (Pre- to Post-op),gene Rcor2,−3.832
same,Fold Change (Pre- to Post-op),gene Rdh1,−9.098
same,Fold Change (Pre- to Post-op),gene Reck,−3.697
same,Fold Change (Pre- to Post-op),gene Rere,−5.753
same,Fold Change (Pre- to Post-op),gene Ret,−3.961
same,Fold Change (Pre- to Post-op),gene Rexo1,−3.149
same,Fold Change (Pre- to Post-op),gene Rftn1,−5.51
same,Fold Change (Pre- to Post-op),gene Rfx1,−3.628
same,Fold Change (Pre- to Post-op),gene Rfx2,−3.221
same,Fold Change (Pre- to Post-op),gene Rgl1,−4.147
same,Fold Change (Pre- to Post-op),gene Rgma,−7.777
same,Fold Change (Pre- to Post-op),gene Rgp1,−3.128
same,Fold Change (Pre- to Post-op),gene Rgs7bp,−4.455
same,Fold Change (Pre- to Post-op),gene Rgs12,−3.405
same,Fold Change (Pre- to Post-op),gene Rimbp2,−3.777
same,Fold Change (Pre- to Post-op),gene Rin3,−6.563
same,Fold Change (Pre- to Post-op),gene Rnf26,−3.258
same,Fold Change (Pre- to Post-op),gene Rnf39,−4.08
same,Fold Change (Pre- to Post-op),gene Rnf44,−3.882
same,Fold Change (Pre- to Post-op),gene Rnf123,−3.016
same,Fold Change (Pre- to Post-op),gene Rnf145,−3.718
same,Fold Change (Pre- to Post-op),gene Rnf169,−5.832
same,Fold Change (Pre- to Post-op),gene Robo4,−4.701
same,Fold Change (Pre- to Post-op),gene Rps6ka3,−3.23
same,Fold Change (Pre- to Post-op),gene Rreb1,−3.94
same,Fold Change (Pre- to Post-op),gene Rrp1b,−4.476
same,Fold Change (Pre- to Post-op),gene Runx1t1,−3.846
same,Fold Change (Pre- to Post-op),gene Rusc2,−5.98
same,Fold Change (Pre- to Post-op),gene S1pr3,−4.05
same,Fold Change (Pre- to Post-op),gene Safb,−3.012
same,Fold Change (Pre- to Post-op),gene Safb2,−4.195
same,Fold Change (Pre- to Post-op),gene Sall2,−4.298
same,Fold Change (Pre- to Post-op),gene Samd4b,−4.849
same,Fold Change (Pre- to Post-op),gene Samd14,−3.117
same,Fold Change (Pre- to Post-op),gene Sart1,−3.301
same,Fold Change (Pre- to Post-op),gene Satb1,−4.068
same,Fold Change (Pre- to Post-op),gene Satb2,−7.47
same,Fold Change (Pre- to Post-op),gene Sbf2,−3.294
same,Fold Change (Pre- to Post-op),gene Scaf4,−3.508
same,Fold Change (Pre- to Post-op),gene Scd3,−9.216
same,Fold Change (Pre- to Post-op),gene Scd4,−4.298
same,Fold Change (Pre- to Post-op),gene Scg3,−4.905
same,Fold Change (Pre- to Post-op),gene Scn9a,−5.496
same,Fold Change (Pre- to Post-op),gene Scnn1a,−3.551
same,Fold Change (Pre- to Post-op),gene Scube1,−5.889
same,Fold Change (Pre- to Post-op),gene Sdc3,−3.31
same,Fold Change (Pre- to Post-op),gene Sec31a,−3.309
same,Fold Change (Pre- to Post-op),gene Sema4c,−3.6
same,Fold Change (Pre- to Post-op),gene Sema6a,−3.4
same,Fold Change (Pre- to Post-op),gene Sema6c,−4.005
same,Fold Change (Pre- to Post-op),gene Sema4d,−5.098
same,Fold Change (Pre- to Post-op),gene Setd1a,−4.558
same,Fold Change (Pre- to Post-op),gene Setd1b,−12.66
same,Fold Change (Pre- to Post-op),gene Setd2,−4.039
same,Fold Change (Pre- to Post-op),gene Sez6l2,−5.201
same,Fold Change (Pre- to Post-op),gene Sf1,−3.678
same,Fold Change (Pre- to Post-op),gene Sf3a2,−7.792
same,Fold Change (Pre- to Post-op),gene Sf3b3,−3.328
same,Fold Change (Pre- to Post-op),gene Sfxn5,−4.939
same,Fold Change (Pre- to Post-op),gene Sgtb,−4.041
same,Fold Change (Pre- to Post-op),gene Sh2b2,−6.791
same,Fold Change (Pre- to Post-op),gene Sh3bp1,−5.739
same,Fold Change (Pre- to Post-op),gene Sh3kbp1,−3.7
same,Fold Change (Pre- to Post-op),gene Sh3pxd2a,−5.598
same,Fold Change (Pre- to Post-op),gene Sh3pxd2b,−4.203
same,Fold Change (Pre- to Post-op),gene Sh3rf1,−3.367
same,Fold Change (Pre- to Post-op),gene Shank2,−12.68
same,Fold Change (Pre- to Post-op),gene Shisa7,−5.311
same,Fold Change (Pre- to Post-op),gene Shroom3,−4.051
same,Fold Change (Pre- to Post-op),gene Shroom4,−5.774
same,Fold Change (Pre- to Post-op),gene Siglec1,−4.753
same,Fold Change (Pre- to Post-op),gene Siglece,−4.016
same,Fold Change (Pre- to Post-op),gene Sik2,−5.871
same,Fold Change (Pre- to Post-op),gene Sik3,−3.681
same,Fold Change (Pre- to Post-op),gene Simc1,−3.024
same,Fold Change (Pre- to Post-op),gene Sipa1,−5.75
same,Fold Change (Pre- to Post-op),gene Sipa1l1,−4.66
same,Fold Change (Pre- to Post-op),gene Sipa1l2,−3.458
same,Fold Change (Pre- to Post-op),gene Sipa1l3,−6.282
same,Fold Change (Pre- to Post-op),gene Ski,−4.917
same,Fold Change (Pre- to Post-op),gene Slc2a3,−7.565
same,Fold Change (Pre- to Post-op),gene Slc2a10,−3.066
same,Fold Change (Pre- to Post-op),gene Slc6a6,−5.089
same,Fold Change (Pre- to Post-op),gene Slc7a1,−3.243
same,Fold Change (Pre- to Post-op),gene Slc7a8,−7.746
same,Fold Change (Pre- to Post-op),gene Slc8a2,−6.736
same,Fold Change (Pre- to Post-op),gene Slc9a1,−5.862
